The list shows a part of the results. Many values rest on one well or one pass, so single values are uncertain.

This experiment deals with Saccharomyces cerevisiae BY4743. The experiment in a line: growth (OD600) relative to untreated control; higher = less growth inhibition. The conditions noted are these: compound concentration: 133 uM; 20 h. On the procedure:
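NMCCC compounds (133 uM, no IPBC) tested alone against Saccharomyces cerevisiae BY4743 in YPD, 96-well plates, starting OD600 ~0.1. Growth was read as OD600 at 20 h and expressed as % of the untreated control. Single pass.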
Take `CC1Cc2cc(S(N)(=O)=O)ccc2N1Cc1cccc(C(F)(F)F)c1` (centres undefined): the growth stood at 85.7%. In turn, `CC(C)CCNC(=O)C(Cc1ccccc1)NS(=O)(=O)c1ccc2c(c1)c(=O)n(C)c(=O)n2C` (centres undefined) gave a growth of 112%. As for `Cc1nc(-c2ccccc2)c(C(=O)OCC(=O)c2ccc[nH]2)s1`, the growth came out at 105%.

As to `Cc1cc(-c2csc(N)n2)c(C)n1NC(=O)c1ccccc1`, the growth amounted to 46.7%. As for `CCN(CC(=O)Nc1sccc1C#N)Cc1ccc2c(c1)OCO2`, the growth was determined as 97.6%. Regarding `CCOC(=O)c1c(NC(=O)CN2CC(C)OC(C)C2)sc(C(=O)NC)c1C` (centres undefined), the growth was determined as 64.4%. As to `Cc1ccc(S(=O)(=O)CCC(=O)OC(C)C(=O)N(C)c2ccccc2)cc1` (centres undefined), the growth is 106%.

The compound `Cc1ccc(-c2nnc(SC(C)C(=O)NC(=O)NC(C)(C)C)o2)cc1C` (centres undefined) returned a growth of 99.2%. Regarding `CCC(C(=O)Nc1nc2nc(C)cc(O)n2n1)c1ccccc1` (centres undefined), the growth stood at 83.6%.

Compound `O=C(Nc1ccc(Cl)c(-c2nc3cnccc3o2)c1)C(F)(F)F` had a growth of 101%. Take `COc1ccc(CNC(=O)COC(=O)Cc2c(C)nn(C)c2C)cc1`: the growth stood at 101%. Turning to `CCCNC(=O)c1nn(CC)cc1NC=O`, the growth worked out at 88.2%. In turn, `O=C(CNC(=O)c1sc2ccccc2c1Cl)OC1CCOC1=O` (centres undefined) yielded a growth of 104%.

With `CCN(C(=O)NCc1noc2ccc(C)cc12)c1cccc(Cl)c1`, the growth turned out to be 103%. Compound `CC(C)CCNC(=O)CN1C(=O)CSc2ncccc21` registered a growth of 106%. `Cc1oc(-c2ccccc2)nc1COC(=O)c1ccc(S(=O)(=O)C(F)F)cc1`: the growth is 75.3%. Turning to `Cc1ccn(CCC(=O)NC(C)Cc2ccco2)n1` (centres undefined), the growth came to 98%. Compound `O=C(COc1ncnc2ccc(Br)cc12)NCC1CCCO1` (centres undefined) gave a growth of 93.2%.

For `CC(C)(C)OC(=O)NC1CCN(C(=O)Nc2ccc(Cl)c(C(F)(F)F)c2)CC1`, the growth is 97%. For `CSc1nc(C)c(CCC(=O)OCc2ccc(C(=O)N3CCCC3)cc2)c(C)n1`, the growth turned out to be 109%. `CN1/C=C(\C=C/C1=O)/C2=N/N(C(O2)C3=CC=C(Cl)C=C3Cl)C(C)=O` (centres undefined) came in with a growth of 94.4%. `N#CCCN(C(=O)COc1ccc(F)c(Cl)c1)c1ccc2c(c1)OCCO2` had a growth of 109%. `CCN1\N=C(\C(=O)OC2CCOC2=O)C3=CC=CC=C3C1=O` (centres undefined) showed a growth of 101%.

Turning to `COc1ccc(-c2noc(N(C)CC(=O)Nc3ccc(Br)cc3C)n2)cc1`, the growth is 88.1%. The compound `CSc1nc2ccc(NC(=O)CSC(C)C(=O)Nc3cc(C)on3)cc2s1` (centres undefined) displayed a growth of 103%. The compound `CCOC(=O)c1cnc(SCc2nc(-c3ccccc3)oc2C)nc1N` displayed a growth of 83.4%. On to `O=C(Cc1cn2ccccc2n1)Nc1cccc(F)c1`, for which the growth was 103%. For `CC(NC(=O)CSc1ncc(-c2ccccc2)nn1)c1ccccc1` (centres undefined), the growth worked out at 111%. The compound `CCc1sc(C(=O)N(C)Cc2ccc3c(c2)OCO3)cc1C` gave a growth of 98.5%. In the case of `CC(C)CNC(=O)N1[C@H](c2cccs2)[C@@H](C)C(=O)[C@@H](C)[C@@H]1c1cccs1` it was 101%. On to `CC(C)CCC(C)NC(=O)CSc1nnc(-c2ccc(F)c(F)c2)c(O)n1` (centres undefined), for which the growth amounted to 107%. In the case of `CCN(CC)CCS\C1=N\C(=C/C(=O)N1C2=CC=CC=C2C)O` it was 98.4%; in that of `Cc1c(Cl)cccc1NC(=O)CNC(=O)CCCc1nc(O)c2ccccc2n1`, 105%; in that of `CC(C)CCNc1cc(-c2ccccc2)nc2nncn12`, 107%. As to `COc1ccc(C(CNC(=O)c2ccc(NS(=O)(=O)c3ccc(F)c(C)c3)cc2)N(C)C)cc1` (centres undefined), the growth was 110%.

With `CCOC(=O)c1c(C)c(C(=O)NCc2ccc3c(c2)OCO3)c(C)n1CC`, the growth came out at 87.7%. `NC(=O)c1ccsc1NC(=O)c1ccc(F)cc1F`: the growth worked out at 79.7%. `CCCc1nnc(CSc2nnc(-c3ccc(NC(C)=O)cc3)o2)o1`: the growth is 108%. With `Fc1ccc(-c2csc(-c3cccs3)n2)cc1`, the growth is 88.8%.

The values above are taken from the supplement of paper PMC8007513.
